The values below come from the supplement of paper PMC10849652.

Amino acid sequences for entries named in this document (tags omitted). A change or cut given only in a name is not applied to a line headed by its entry.
UniProt Q9NRP2: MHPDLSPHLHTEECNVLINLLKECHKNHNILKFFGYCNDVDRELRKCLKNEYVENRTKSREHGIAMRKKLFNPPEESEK
UniProt Q9NX76: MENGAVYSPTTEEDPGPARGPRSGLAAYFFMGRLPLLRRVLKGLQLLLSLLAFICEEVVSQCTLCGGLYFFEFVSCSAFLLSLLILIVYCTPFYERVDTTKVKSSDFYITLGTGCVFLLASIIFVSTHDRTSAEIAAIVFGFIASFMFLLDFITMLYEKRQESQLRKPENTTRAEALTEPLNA
UniProt Q9BT09: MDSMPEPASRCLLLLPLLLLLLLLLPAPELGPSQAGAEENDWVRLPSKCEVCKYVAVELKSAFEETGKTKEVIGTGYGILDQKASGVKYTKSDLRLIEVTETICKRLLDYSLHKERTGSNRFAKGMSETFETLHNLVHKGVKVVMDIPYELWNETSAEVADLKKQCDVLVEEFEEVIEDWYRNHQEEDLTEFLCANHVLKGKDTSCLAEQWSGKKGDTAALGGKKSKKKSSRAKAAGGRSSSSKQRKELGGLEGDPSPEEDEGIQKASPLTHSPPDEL
UniProt Q99828: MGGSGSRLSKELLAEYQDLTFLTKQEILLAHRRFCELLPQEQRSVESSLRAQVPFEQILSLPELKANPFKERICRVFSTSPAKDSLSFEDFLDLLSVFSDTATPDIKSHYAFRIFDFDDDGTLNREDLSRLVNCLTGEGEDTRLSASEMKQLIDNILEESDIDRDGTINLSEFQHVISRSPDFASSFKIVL
UniProt Q6PJW8: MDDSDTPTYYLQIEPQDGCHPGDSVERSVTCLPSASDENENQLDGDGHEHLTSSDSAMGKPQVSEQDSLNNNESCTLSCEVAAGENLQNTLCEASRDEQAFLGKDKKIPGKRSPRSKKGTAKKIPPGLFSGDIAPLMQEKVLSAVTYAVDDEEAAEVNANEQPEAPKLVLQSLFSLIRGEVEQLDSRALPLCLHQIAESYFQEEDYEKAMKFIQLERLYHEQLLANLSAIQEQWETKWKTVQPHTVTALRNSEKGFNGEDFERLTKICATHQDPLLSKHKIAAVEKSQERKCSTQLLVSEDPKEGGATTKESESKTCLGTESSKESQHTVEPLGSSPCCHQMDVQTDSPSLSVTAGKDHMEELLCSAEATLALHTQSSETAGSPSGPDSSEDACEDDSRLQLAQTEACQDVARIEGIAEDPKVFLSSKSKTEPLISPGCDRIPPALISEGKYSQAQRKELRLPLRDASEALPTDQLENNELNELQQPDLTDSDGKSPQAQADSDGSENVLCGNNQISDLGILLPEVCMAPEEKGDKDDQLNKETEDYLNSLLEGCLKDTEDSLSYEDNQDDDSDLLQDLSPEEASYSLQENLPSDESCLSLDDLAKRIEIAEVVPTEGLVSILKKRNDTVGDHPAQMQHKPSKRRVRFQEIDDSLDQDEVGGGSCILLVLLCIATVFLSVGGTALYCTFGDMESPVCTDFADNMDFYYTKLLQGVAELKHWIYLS
UniProt Q9H6Q4: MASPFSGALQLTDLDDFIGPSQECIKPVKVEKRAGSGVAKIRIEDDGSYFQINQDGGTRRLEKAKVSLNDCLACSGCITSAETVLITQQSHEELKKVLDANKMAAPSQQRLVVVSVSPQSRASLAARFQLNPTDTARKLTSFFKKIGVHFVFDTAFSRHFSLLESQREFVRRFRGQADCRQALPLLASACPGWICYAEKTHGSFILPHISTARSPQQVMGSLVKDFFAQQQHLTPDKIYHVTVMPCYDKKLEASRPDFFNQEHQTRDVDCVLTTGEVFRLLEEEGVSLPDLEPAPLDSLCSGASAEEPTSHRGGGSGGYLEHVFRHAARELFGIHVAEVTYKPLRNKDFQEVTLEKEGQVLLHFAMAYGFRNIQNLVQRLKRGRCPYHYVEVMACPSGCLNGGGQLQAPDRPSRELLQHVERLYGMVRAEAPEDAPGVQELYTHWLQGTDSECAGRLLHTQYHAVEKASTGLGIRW
UniProt Q9GZY4: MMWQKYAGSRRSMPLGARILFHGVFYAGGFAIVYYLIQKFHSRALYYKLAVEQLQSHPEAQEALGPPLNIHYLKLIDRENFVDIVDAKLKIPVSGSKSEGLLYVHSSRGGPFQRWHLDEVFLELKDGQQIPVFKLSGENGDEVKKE
UniProt Q9Y2B0: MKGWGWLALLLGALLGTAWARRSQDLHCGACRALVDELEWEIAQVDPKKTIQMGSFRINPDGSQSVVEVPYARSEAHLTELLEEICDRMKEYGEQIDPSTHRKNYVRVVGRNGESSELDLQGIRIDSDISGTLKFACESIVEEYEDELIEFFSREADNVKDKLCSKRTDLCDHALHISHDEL
UniProt Q9NZ45: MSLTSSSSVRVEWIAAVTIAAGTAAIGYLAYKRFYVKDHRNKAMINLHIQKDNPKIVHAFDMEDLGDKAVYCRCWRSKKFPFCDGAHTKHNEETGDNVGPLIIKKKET
UniProt Q9H9A5, whole entry, looked up: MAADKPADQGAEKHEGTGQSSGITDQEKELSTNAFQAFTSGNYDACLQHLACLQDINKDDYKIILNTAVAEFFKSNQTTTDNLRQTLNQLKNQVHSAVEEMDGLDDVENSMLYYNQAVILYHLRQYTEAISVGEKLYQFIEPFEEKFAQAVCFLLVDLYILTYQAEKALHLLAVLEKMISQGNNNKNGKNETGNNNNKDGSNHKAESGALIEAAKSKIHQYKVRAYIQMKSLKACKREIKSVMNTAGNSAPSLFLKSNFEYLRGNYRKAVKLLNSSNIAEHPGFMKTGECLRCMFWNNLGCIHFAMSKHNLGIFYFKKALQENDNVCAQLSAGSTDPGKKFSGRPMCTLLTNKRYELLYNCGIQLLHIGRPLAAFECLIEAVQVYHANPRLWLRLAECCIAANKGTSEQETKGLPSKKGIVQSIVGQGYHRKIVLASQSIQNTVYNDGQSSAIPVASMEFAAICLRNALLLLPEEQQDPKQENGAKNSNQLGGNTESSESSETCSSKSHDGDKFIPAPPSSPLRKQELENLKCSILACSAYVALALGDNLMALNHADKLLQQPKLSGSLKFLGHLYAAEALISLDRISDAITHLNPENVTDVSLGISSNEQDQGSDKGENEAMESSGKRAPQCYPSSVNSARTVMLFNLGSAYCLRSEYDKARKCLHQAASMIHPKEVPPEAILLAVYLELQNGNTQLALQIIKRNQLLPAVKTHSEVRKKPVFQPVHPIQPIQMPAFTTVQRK
UniProt O75175, whole entry, looked up: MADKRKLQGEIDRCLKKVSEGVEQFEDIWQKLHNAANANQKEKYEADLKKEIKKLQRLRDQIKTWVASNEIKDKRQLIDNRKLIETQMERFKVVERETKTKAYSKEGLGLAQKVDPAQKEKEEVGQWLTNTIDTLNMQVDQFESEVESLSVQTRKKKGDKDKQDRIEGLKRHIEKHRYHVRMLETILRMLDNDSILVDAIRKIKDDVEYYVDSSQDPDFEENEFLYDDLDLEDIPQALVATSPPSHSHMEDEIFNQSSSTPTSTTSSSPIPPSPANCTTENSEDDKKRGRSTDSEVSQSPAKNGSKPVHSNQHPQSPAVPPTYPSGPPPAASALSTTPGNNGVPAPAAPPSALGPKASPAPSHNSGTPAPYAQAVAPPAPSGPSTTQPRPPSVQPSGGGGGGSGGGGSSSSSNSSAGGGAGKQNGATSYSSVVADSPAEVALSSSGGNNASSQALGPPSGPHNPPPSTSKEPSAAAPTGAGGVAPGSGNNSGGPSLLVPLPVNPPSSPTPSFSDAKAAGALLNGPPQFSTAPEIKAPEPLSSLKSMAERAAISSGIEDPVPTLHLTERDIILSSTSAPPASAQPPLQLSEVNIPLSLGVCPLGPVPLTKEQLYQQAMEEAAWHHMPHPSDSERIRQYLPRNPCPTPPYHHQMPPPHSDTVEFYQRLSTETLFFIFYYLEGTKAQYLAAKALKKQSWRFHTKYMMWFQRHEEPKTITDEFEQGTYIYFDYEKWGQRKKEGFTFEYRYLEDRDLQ
UniProt Q96BR5: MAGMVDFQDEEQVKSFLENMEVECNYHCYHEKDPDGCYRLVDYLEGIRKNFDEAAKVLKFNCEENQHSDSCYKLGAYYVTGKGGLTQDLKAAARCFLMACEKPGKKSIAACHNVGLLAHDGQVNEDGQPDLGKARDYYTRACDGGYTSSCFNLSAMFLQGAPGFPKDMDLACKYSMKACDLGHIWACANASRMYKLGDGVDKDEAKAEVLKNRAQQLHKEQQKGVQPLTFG
UniProt Q7Z7K0: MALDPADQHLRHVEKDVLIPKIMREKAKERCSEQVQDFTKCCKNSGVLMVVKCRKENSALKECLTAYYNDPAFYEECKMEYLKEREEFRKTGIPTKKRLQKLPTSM
UniProt Q8WUX9: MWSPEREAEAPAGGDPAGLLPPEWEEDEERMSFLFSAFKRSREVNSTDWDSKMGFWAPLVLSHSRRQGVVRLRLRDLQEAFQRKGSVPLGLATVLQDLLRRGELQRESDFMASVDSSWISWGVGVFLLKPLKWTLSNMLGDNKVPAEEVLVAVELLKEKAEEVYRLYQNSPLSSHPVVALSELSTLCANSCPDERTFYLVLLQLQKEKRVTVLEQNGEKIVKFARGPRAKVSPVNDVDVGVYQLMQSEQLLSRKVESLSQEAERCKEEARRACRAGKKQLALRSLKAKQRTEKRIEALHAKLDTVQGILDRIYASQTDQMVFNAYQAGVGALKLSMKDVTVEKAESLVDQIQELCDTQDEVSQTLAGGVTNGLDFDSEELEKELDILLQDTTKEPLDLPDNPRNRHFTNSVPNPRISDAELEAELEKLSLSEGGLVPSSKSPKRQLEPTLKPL
UniProt P0C7P0: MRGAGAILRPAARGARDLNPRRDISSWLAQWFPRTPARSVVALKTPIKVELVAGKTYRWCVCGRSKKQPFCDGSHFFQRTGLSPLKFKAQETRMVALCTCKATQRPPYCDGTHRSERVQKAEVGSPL
UniProt Q8WUH1: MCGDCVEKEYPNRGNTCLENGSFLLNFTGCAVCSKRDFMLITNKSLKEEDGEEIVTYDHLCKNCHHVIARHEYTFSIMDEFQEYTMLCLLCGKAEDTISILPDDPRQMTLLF
UniProt Q92600, whole entry, looked up: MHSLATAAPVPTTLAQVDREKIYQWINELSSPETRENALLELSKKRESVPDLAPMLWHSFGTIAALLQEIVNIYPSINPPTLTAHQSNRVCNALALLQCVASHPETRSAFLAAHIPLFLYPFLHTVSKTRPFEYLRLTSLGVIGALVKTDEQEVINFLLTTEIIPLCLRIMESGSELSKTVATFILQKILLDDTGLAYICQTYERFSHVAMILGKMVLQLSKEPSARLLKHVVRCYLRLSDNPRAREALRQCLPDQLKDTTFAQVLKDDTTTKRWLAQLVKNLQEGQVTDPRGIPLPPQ
UniProt P08123: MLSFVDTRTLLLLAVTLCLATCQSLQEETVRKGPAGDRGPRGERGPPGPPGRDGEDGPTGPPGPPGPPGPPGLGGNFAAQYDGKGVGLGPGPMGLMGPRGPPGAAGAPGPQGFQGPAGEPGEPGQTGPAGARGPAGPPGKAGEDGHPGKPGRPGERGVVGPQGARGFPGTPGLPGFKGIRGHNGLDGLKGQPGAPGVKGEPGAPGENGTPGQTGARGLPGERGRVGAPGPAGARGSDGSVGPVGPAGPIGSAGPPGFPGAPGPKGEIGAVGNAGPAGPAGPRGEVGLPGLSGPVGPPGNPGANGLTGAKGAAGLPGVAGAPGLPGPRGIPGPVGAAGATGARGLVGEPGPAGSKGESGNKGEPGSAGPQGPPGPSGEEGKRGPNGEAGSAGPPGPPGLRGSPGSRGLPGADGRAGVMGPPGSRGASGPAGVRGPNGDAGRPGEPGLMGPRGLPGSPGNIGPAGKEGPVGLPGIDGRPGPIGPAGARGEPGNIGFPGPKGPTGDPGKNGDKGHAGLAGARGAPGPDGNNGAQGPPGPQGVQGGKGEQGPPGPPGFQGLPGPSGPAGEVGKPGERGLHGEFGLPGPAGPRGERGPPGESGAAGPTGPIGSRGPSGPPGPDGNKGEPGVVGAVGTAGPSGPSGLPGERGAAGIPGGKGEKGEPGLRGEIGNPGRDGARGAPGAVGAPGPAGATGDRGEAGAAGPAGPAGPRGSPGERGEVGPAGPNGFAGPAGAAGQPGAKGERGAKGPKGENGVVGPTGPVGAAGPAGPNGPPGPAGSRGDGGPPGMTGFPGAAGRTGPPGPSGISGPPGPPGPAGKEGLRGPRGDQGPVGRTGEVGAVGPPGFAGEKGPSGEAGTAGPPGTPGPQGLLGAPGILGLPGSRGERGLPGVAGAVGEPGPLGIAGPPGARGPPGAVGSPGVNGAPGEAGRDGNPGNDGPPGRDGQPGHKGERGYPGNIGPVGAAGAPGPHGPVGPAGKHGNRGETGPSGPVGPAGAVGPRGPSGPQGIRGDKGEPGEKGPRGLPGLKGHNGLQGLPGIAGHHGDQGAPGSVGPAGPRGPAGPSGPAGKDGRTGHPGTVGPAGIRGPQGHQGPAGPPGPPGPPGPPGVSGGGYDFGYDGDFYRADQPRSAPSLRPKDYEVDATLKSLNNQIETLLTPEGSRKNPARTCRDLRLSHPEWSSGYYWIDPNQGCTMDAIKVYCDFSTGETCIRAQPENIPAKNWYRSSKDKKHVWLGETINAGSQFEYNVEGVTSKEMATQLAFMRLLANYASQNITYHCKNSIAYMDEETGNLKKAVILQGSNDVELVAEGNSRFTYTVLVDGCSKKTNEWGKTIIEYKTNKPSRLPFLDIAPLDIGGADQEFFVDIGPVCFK

Some of the results follow.

Compound in the assay: CC1=C(C2=C(C=C1)C(=O)C3=CC=CC=C3N2CCCN)C
As to the kind of experiment: log2 fold change, soluble protein after heating vs DMSO (PISA); higher = thermal stabilisation; K562 cells, 10 uM, 30 min; active = over 0.2 and 3.5 SD of the protein, either way, in both replicates (recomputed). Put shortly:
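For each measurement, 10 μM compound was applied for 30 min to K562 cells at 2×10^6 cells/mL. Aliquots were heated for 3 min across 48°C-58°C, pooled, and extracted in PBS with 0.5% NP-40 at 4°C; the supernatant after 21,000xg for 90 min was soluble protein. This was quantified by TMTpro 16plex LC-MS/MS with channel sums equalised, and thermal stability was reported relative to control samples from duplicates, on a log2 fold-change scale.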
Turning to CMC2 (UniProt Q9NRP2), the log2 fold change was inactive: 0.046.
For the target CMTM6 (UniProt Q9NX76), the log2 fold change is inactive: -0.005.
As for CNPY3 (UniProt Q9BT09), the log2 fold change was inactive: 0.016.
To CIB1 isoform 2 (UniProt Q99828) belongs inactive: 0.172.
Under CNST (UniProt Q6PJW8) stands inactive: -0.034.
Regarding CIAO3 (UniProt Q9H6Q4), the log2 fold change was inactive: 0.073.
Consider CNOT11 (UniProt Q9UKZ1), for which the log2 fold change is inactive: 0.064.
Under COA1 (UniProt Q9GZY4) stands inactive: 0.05; under CNPY2 (UniProt Q9Y2B0), inactive: -0.051; under CISD1 (UniProt Q9NZ45), inactive: 0.006.
To CNOT6L (UniProt Q96LI5) belongs inactive: 0.114; to CNOT10 isoform 6 (UniProt Q9H9A5), inactive: 0.098.
To CNOT3 (UniProt O75175) belongs inactive: 0.013; to COA7 (UniProt Q96BR5), inactive: -0.039; to CNTNAP4 (UniProt Q9C0A0), inactive: -0.727.
CMC1 (UniProt Q7Z7K0): the log2 fold change was inactive: -0.1.
Take CHMP7 (UniProt Q8WUX9): the log2 fold change is inactive: 0.037.
CISD3 (UniProt P0C7P0): the log2 fold change was inactive: 0.145.
Under CHURC1 isoform 2 (UniProt Q8WUH1) stands inactive: -0.004; under CNOT9 isoform 2 (UniProt Q92600), inactive: 0.046; under CKMT2 (UniProt P17540), inactive: -0.077.
Under COL1A2 (UniProt P08123) stands inactive: -0.26; under CMAS (UniProt Q8NFW8), inactive: 0.06.
